Experimental data: publication PMC7181796
Positions count from the first letter of the chain named. Numbers in names are those of the source. No constants are given. Whether binding was seen depends on the method and setting. Binding seen in cells or lysates may run through a third protein. Some entries that bind do so weakly or less than the wild type.

Columns and labels:
F-BAK^G51C (human) = F-BAK^G51C (human) (UniProt Q16611); assay: cross-linking; oxidant (CuPhe)-induced disulfide (cysteine) linkage on membrane fractions of MEF after activation (7D10 with co-expressed BAK, 3C10 or cBID); non-reducing blots
[1] = target: T1, wild-type human BAK (human) (UniProt Q16611); assay: as above
T1 sequence: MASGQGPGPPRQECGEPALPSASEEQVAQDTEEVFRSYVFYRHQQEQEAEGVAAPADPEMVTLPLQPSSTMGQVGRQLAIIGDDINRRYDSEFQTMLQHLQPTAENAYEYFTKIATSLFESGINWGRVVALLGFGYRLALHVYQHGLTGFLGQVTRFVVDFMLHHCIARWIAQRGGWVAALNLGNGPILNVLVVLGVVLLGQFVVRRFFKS

[2] = target: T1, wild-type human BAK (human); assay: co-IP; membrane fractions of MEF incubated with 7D10 antibody (0.1 mg/ml, 30 min, 30 °C) to activate BAK, solubilized with 1% w/v digitonin, 7D10 captured on Protein G sepharose, blotted for FLAG, BAK or BAX
[3] = target: T2, wild-type human BAK (human), Q16611; assay: cross-linking; oxidant (CuPhe)-induced disulfide (cysteine) linkage on membrane fractions of MEF after activation (7D10 with co-expressed BAK, 3C10 or cBID); non-reducing blots; settings: remark: other sources report otherwise
T2 chain: T1 sequence

[4] = target: T1, wild-type human BAK (human); assay: condition: only 3C10 treatment with co-expressed BAX-S184L (BAK not activated); cross-linking; oxidant (CuPhe)-induced disulfide linkage on membrane fractions of MEF co-expressing BAK and BAX-S184L, treated with 3C10 (BAX-S184L activated, BAK not activated)

B1: F-BAK^G51C (protein, UniProt Q16611 1-211)
chain: T1 sequence with G51C
binding (F-BAK^G51C (human)): binds
binding [1]: binds
binding [2]: binds

B2: wild-type human BAK, Q16611 1-211 (protein)
chain: T1 sequence
binding [3]: binds

B3: wild-type human BAK (protein, UniProt Q16611 1-211)
chain: T1 sequence
binding [4]: no binding
